From PubChem BioAssay AID743255 (National Center for Advancing Translational Sciences (NCATS), 2014)
Among all 390,000 compounds or so, about 910 (0.23%) were called active. Inconclusive results, whose numbers are uncertain, are shown with a selection of clear calls. Calls follow the shape of the dose curve; as a rule, active = well fitted inhibition curve with a large enough effect; inconclusive = small, poorly fitted or top-dose-only effect; inactive = no such curve, though single readings can be large or run the other way. A potency beside an inconclusive call is a rough fit, not a confirmed value.

Chains of the proteins cited; added tags and fusions are not shown. Lines headed by an entry give the natural chain unless they say otherwise; changes in a name come on top.
UniProt O94782: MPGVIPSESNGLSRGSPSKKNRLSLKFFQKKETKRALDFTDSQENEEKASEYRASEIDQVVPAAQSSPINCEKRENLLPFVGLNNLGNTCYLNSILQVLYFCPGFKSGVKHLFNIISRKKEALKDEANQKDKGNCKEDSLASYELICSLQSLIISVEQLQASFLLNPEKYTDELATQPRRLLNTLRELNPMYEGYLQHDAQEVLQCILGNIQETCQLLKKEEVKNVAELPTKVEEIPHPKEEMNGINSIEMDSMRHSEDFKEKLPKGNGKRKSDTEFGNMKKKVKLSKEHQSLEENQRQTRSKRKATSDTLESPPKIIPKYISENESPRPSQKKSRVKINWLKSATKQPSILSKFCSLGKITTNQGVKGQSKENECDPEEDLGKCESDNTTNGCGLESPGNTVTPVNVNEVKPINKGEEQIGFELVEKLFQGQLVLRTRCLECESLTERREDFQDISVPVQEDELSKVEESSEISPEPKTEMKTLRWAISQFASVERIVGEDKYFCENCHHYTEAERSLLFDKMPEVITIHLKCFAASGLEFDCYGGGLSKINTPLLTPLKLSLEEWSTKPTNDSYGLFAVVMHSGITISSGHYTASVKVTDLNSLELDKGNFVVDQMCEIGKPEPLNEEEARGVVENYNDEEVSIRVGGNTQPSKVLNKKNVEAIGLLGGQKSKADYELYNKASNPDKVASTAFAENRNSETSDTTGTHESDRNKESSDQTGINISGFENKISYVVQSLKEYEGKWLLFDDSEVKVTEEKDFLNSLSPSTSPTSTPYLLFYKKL

target: Ubiquitin carboxyl-terminal hydrolase 1 (Homo sapiens) (UniProt O94782); experiment: Inhibitors of USP1/UAF1: Primary Screen; conditions: recombinant USP1/UAF1, Ub-Rhodamine cleavage fluorescence; series mostly up to 57.1 µM; also: nearly all actives have a fitted effect of over 60% in size
Procedure, shortened: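 Step one: compound is pinned into 1nM USP1/UAF1 in HEPES pH 7.8 buffer with TCEP. Step two: 15 min room-temperature incubation. Step three: Ub-Rho (150nM final) starts cleavage, tracked by fluorescence over six one-minute reads.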
Potency is read from the fitted curve at half-maximal effect.

Potency, inactive:
Cc1ccc(Cl)cc1N1CCN(C(=O)c2cn(C)c(=O)c3c2c2ccccc2n3C)CC1, CCCCn1c(N)c(N(CC)C(=O)c2cnc(C)cn2)c(=O)[nH]c1=O, CCN(c1cc(C)cc(C)c1)S(=O)(=O)c1nnc(NC(=O)c2ccccc2C)s1, O=C(c1ccccc1-c1nc(-c2ccc(Cl)cc2)no1)N1CCCC1, CN(C)CCCSc1nc(-c2ccccc2)nc2c1CCC2, Cc1ccccc1Cn1cc(S(=O)(=O)c2ccc(F)cc2)c(=O)c2cc3c(cc21)OCO3, CCCn1nc2cc(C(=O)NC3CCCc4ccccc43)ccc2c1OCC (configuration not stated), CCN(CC)CCNC(=O)c1ccc2c(=O)n3nc(Nc4cccc(Cl)c4C)sc3nc2c1, COC(=O)Cc1cc(=O)n2[nH]c(C(F)(F)F)nc2n1, Cc1nc(N2CCOCC2)c2c(C(=O)N3CCN(c4ccc(Cl)cc4)CC3)c(C)oc2n1, O=C(Nc1ccccc1)Nc1nnc(CSCc2ccccc2Cl)s1, Cc1ccc(C(=O)c2ccc(C)cc2)cc1, O=C(NCCN1CCN(c2ccccc2)CC1)c1ccccc1F

Potency, inconclusive:
O=C1CCN(Cc2nnnn2CC2CCCO2)c2ccccc2N1 (configuration not stated) 28.2 µM [inhibitor, single point], Cc1ccccc1C(=O)Nc1c(C(=O)N2CCCC2)cnn1-c1ccccc1 0.447 µM [inhibitor, full curve, poor fit], COC(=O)[C@H]1C[C@@H](c2ccccc2)[C@H](C)C1(C)C 44.7 µM [inhibitor, partial curve, poor fit], CCCCOc1c(Br)cc(/C=N/O)cc1OCC 28.2 µM [inhibitor, partial curve], O=C(CCc1ccccc1)Nc1ccccc1OC(=O)c1ccccc1 50.1 µM [inhibitor, partial curve, poor fit], C=CCC[C@@H](Cc1ccc(F)cc1)C(=O)OC[C@@H](NC(=O)[C@H](CC=C)CC(=O)N(CCO)Cc1ccccc1)c1ccccc1 6.31 µM [inhibitor, full curve, poor fit], CC1CC(C)CN(CCCNS(=O)(=O)c2ccc3c(c2)oc(=O)n3C)C1 (configuration not stated) 44.7 µM [inhibitor, partial curve], Cc1cc(=O)n(C)c(=O)n1CCCCCCN1CCCC1 31.6 µM [inhibitor, partial curve], Cc1cccc(NC(=O)c2ccc(Cn3nc(N4CCN(c5ccccc5)CC4)ccc3=O)o2)c1C 25.1 µM [inhibitor, partial curve], O=C1NC[C@@H](Cc2cccc3ccccc23)N(CCc2cc(C(F)(F)F)cc(C(F)(F)F)c2)C1=O 50.1 µM [inhibitor, partial curve, poor fit], Oc1ccccc1N1CCN(c2ccc3ccccc3n2)CC1 14.1 µM [inhibitor, partial curve], Cc1ccc(N/C=C/C(=O)c2sc(-c3ccccc3)nc2C)cc1 35.5 µM [inhibitor, single point], COc1cccc2c1C(=O)c1c(O)c3c(c(O)c1C2=O)CC(O)(C(C)=O)CC3OC1CC(N(C)C)C(O)C(C)O1 (configuration not stated) 31.6 µM [inhibitor, partial curve], Cc1nn(-c2ccccc2)c(N)c1N=Nc1ccc(Cl)cc1 35.5 µM [inhibitor, partial curve], O=S(=O)(c1ccc2nc(Nc3ccc(Br)cc3F)ccc2c1)N1CCCCC1 3.16 µM [inhibitor, full curve, poor fit], Cc1cc(C(=O)N/N=C/c2ccccn2)c2ccccc2n1 44.7 µM [inhibitor, single point], COc1ccc(CCNC(=O)c2cc(-c3ccco3)nc3ccccc23)cc1 39.8 µM [inhibitor, partial curve, poor fit], Cc1ccc(OCCSc2nc3ccccc3n2CC(=O)N2CCCCC2)c(C)c1 79.4 µM [inhibitor, partial curve, poor fit], CN(C)C(=O)N1CCC(C(=O)NCc2ccc(F)cc2Cl)CC1 3.98 µM [inhibitor, partial curve], COc1ccc(S(=O)(=O)Nc2ccc3c(c2)[C@H]2C[C@H](CC(=O)NCC4CC4)O[C@@H](CO)[C@H]2O3)cc1 0.282 µM [inhibitor, full curve], C=CCNc1nc(Cl)nc(Nc2cc(Cl)ccc2OC)n1 44.7 µM [inhibitor, partial curve, poor fit], N#Cc1ccc(C(=O)Nc2ccc3ccccc3c2)cc1 63.1 µM [inhibitor, partial curve, poor fit], COc1ccc(C2=[N+]([O-])C(C)(C)C(c3ccccc3)=N2)cc1 5.62 µM [inhibitor, partial curve], O=C(Cc1cccc(NC(=O)C2CCN(C(=O)C3CCCC3)CC2)c1)Nc1cccc(C(=O)N2CCOCC2)c1 50.1 µM [inhibitor, partial curve, poor fit], CC1(C)N=C(c2ccccn2)C(C)(C)N1O 12.6 µM [inhibitor, partial curve, poor fit], COc1ccccc1N(/N=C1\Sc2ccccc2C1=O)C(C)=O 39.8 µM [inhibitor, partial curve], COc1ccc2ccc3c(c2c1)N=C[C@]1(O3)N(C)c2ccccc2C1(C)C 31.6 µM [inhibitor, single point], Cc1cccc(Nc2cc(C)nc3nc(Cc4ccc(Cl)cc4)nn23)c1 44.7 µM [inhibitor, partial curve], Clc1ccc(CN2CC[C@H]3C=CCc4cccc(c43)C2)cc1 56.2 µM [inhibitor, partial curve, poor fit]
